From the supplement of paper PMC10849652
Some of the results follow.

By UniProt entry, the sequences of proteins in these tests, tags left out. Where a name states a change or a piece, a line headed by the entry shows the natural chain unless it says otherwise.
UniProt Q12972: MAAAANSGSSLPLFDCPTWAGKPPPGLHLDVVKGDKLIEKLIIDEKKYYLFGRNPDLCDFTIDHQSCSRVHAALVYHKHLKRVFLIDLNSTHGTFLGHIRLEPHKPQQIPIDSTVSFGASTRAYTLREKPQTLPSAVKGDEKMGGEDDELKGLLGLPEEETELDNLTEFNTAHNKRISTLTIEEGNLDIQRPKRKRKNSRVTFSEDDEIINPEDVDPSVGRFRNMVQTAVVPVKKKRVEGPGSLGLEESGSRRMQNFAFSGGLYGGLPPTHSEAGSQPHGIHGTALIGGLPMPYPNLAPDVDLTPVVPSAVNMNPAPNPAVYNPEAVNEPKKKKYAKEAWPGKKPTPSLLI
UniProt Q66LE6: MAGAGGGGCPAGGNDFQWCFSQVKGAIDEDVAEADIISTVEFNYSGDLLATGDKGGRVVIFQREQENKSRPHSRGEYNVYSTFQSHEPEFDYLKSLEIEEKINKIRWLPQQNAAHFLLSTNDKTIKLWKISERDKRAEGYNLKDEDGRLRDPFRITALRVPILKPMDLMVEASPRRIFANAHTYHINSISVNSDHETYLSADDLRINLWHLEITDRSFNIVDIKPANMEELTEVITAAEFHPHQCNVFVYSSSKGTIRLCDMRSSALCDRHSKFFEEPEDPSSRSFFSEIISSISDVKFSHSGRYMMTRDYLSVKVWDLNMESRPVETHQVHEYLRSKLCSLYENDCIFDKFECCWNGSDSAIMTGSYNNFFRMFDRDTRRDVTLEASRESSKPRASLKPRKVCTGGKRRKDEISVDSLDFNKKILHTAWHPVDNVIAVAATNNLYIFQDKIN
UniProt O60828: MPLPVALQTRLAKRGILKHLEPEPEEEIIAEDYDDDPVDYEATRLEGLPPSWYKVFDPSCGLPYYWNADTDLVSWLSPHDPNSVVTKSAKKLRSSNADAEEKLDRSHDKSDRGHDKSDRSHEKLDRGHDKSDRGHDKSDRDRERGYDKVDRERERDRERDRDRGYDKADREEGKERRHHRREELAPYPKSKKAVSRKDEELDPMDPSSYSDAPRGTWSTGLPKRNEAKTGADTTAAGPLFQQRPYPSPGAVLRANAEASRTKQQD
UniProt P60510: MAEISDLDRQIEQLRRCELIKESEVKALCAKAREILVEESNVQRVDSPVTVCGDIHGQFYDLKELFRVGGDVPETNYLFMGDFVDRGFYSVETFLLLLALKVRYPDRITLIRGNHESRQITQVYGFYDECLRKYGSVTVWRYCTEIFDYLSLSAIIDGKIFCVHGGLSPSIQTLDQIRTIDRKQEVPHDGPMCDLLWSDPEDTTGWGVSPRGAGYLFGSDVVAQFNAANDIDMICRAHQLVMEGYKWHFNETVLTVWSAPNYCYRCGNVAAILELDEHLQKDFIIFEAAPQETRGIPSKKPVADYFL
UniProt Q9UNN8: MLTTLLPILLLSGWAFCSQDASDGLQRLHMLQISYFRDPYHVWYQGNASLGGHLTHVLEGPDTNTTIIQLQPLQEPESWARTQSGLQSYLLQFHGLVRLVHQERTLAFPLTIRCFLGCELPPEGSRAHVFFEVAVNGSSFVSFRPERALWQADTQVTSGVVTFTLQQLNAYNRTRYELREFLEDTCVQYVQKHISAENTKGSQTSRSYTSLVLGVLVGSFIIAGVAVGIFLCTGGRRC
UniProt Q8TAE6: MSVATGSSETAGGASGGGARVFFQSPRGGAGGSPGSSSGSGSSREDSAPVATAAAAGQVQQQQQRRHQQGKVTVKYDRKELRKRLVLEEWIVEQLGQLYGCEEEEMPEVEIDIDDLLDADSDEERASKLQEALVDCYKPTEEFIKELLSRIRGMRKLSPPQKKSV
UniProt P60891: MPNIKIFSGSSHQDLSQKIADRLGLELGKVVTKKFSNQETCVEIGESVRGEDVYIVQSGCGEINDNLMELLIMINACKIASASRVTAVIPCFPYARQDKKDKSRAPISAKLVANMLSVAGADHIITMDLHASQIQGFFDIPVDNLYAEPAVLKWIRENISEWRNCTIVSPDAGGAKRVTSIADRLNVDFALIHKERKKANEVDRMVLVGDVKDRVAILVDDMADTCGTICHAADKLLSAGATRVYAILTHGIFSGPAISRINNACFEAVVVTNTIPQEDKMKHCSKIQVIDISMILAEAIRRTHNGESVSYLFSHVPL
UniProt P14314: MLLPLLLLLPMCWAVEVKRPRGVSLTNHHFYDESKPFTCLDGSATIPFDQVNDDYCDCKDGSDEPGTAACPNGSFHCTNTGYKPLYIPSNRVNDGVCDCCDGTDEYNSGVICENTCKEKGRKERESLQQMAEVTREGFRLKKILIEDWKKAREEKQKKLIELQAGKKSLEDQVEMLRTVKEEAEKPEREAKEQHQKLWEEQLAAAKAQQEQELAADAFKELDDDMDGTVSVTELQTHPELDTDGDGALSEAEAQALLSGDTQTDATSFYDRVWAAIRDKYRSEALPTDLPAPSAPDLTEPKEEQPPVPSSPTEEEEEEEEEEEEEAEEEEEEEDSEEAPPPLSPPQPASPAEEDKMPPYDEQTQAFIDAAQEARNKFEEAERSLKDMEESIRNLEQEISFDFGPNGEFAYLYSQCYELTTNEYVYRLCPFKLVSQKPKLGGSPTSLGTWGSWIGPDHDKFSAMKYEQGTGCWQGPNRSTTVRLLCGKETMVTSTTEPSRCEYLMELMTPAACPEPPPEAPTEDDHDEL
UniProt O43172: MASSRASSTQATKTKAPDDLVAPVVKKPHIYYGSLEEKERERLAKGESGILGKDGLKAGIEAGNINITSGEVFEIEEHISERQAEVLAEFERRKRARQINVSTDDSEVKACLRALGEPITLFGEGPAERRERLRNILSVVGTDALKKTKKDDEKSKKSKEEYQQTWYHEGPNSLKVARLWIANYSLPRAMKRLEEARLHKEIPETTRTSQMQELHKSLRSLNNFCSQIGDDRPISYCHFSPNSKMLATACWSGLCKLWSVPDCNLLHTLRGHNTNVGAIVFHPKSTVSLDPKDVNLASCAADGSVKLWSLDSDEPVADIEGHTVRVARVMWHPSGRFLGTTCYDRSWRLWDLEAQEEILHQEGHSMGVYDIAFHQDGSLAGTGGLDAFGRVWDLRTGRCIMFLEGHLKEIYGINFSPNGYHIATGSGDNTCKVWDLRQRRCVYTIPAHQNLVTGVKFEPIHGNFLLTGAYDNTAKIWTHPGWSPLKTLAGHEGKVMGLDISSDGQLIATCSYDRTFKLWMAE
UniProt Q6NYC8: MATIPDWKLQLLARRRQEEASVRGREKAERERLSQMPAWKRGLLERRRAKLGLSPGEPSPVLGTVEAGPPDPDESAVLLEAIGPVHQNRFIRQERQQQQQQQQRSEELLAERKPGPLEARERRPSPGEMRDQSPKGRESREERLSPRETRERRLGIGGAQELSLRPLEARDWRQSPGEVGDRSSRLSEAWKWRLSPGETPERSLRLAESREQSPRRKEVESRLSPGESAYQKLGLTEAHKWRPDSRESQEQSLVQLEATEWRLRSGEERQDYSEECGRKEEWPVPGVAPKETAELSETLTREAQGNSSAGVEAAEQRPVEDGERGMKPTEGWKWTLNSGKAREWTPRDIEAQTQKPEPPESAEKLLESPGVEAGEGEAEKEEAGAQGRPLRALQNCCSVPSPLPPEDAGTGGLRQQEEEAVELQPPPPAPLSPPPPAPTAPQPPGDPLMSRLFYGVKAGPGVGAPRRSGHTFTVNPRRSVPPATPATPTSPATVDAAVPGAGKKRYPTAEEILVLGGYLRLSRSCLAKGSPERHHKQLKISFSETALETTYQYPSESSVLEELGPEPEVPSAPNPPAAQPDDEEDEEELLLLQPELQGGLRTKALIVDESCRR
UniProt O60927: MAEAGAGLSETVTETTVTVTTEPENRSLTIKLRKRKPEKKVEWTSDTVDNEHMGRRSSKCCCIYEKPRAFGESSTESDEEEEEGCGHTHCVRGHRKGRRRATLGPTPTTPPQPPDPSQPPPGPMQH
UniProt Q99633: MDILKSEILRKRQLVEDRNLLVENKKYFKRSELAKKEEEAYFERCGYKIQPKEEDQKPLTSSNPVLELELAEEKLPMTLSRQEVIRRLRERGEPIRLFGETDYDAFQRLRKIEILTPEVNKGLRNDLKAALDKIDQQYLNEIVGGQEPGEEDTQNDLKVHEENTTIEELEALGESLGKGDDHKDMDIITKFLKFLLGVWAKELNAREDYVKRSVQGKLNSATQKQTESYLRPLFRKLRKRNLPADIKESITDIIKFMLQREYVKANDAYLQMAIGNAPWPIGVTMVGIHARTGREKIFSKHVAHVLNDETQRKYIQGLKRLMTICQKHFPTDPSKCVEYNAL
UniProt P30041: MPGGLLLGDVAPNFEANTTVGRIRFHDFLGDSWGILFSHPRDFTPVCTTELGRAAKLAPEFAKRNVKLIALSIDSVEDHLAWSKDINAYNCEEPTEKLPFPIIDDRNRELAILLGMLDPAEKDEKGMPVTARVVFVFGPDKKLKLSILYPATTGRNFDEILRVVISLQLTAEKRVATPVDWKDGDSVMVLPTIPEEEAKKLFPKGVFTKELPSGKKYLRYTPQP
UniProt P32119: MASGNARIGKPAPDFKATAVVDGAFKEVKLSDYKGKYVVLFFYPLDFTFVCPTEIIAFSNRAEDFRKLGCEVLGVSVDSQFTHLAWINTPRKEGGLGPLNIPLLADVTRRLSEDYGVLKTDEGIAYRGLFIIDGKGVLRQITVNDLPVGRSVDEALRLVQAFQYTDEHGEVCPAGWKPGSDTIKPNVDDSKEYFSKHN

Experiments:
Experiment in all cases: log2 fold change, soluble protein after heating vs DMSO (PISA); higher = thermal stabilisation; K562 cells, 10 uM, 30 min; active = over 0.2 and 3.5 SD of the protein, either way, in both replicates (recomputed)
[1] = compound: CC[C@@H]1C(=O)N(C)c2cnc(Nc3ccc(C(=O)NC4CCN(C)CC4)cc3OC)nc2N1C1CCCC1
How it was run: (§1)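 K562 cells at 2×10^6 cells/mL were treated for 30 min with 10 μM compound, and aliquots were heated for 3 min over 48°C-58°C before pooling. Extraction used PBS with 0.5% NP-40 at 4°C, and soluble protein was the supernatant after 21,000xg for 90 min, measured by TMTpro 16plex LC-MS/MS with channel sums equalised. Thermal stability values, relative to control samples and from duplicates, are log2 fold changes.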

volasertib = compound: CC[C@@H]1C(=O)N(C)c2cnc(Nc3ccc(C(=O)N[C@H]4CC[C@H](N5CCN(CC6CC6)CC5)CC4)cc3OC)nc2N1C(C)C [volasertib]
How it was run: as §1

[2] = compound: CC[C@H](C)N1C=C(C2=C(C=C(C=C21)C3=CN=C(C=C3)N4CCNCC4)C(=O)NCC5=C(C=C(NC5=O)C)C)C
How it was run: as §1

epoxomicin = compound: CC[C@H](C)[C@@H](C(=O)N[C@@H]([C@@H](C)O)C(=O)N[C@@H](CC(C)C)C(=O)[C@]1(CO1)C)NC(=O)[C@H]([C@@H](C)CC)N(C)C(=O)C [epoxomicin]
How it was run: as §1

[3] = compound: CCn1c(C(=O)N(C2CC2)C2CC2)cc2c3c(ncn3C)c(Nc3cc(C)n(C)n3)nc21
How it was run: as §1

[4] = compound: CCn1cc(-c2ccnc3[nH]c(-c4cccc(CN(C)C)c4)cc23)c(-c2ccc(NC(=O)N(C)C)cc2)n1
How it was run: as §1

[5] = compound: CN(C)CC(=O)Nc1ccc2[nH]c(=O)c3ccccc3c2c1
How it was run: as §1

rosiglitazone = compound: CN(CCOC1=CC=C(C=C1)C[C@H]2C(=O)NC(=O)S2)C3=CC=CC=N3 (racemic) [rosiglitazone]
How it was run: as §1

[6] = compound: CN1C2=C(C3=C1C(=O)N(N=C3)CC4=CC(=CC=C4)N)SC(=C2)S(=O)C
How it was run: as §1

[7] = compound: CN1CCC(CNc2ccc3ncc(-c4cccc(OC(F)(F)F)c4)n3n2)CC1
How it was run: as §1

saracatinib = compound: CN1CCN(CCOc2cc(OC3CCOCC3)c3c(Nc4c(Cl)ccc5c4OCO5)ncnc3c2)CC1 [saracatinib]
How it was run: as §1

sotrastaurin = compound: CN1CCN(c2nc(C3=C(c4c[nH]c5ccccc45)C(=O)NC3=O)c3ccccc3n2)CC1 [sotrastaurin]
How it was run: as §1

alvocidib = compound: CN1CC[C@H](c2c(O)cc(O)c3c(=O)cc(-c4ccccc4Cl)oc23)[C@H](O)C1 [alvocidib]
How it was run: as §1

Tubastatin A = compound: CN1CCc2c(c3ccccc3n2Cc2ccc(C(=O)NO)cc2)C1 [Tubastatin A]
How it was run: as §1

[8] = compound: CNC(=O)C1=CC=CC=C1NC2=NC(=NC=C2Cl)NC3=C(C=C(C=C3)N4CCOCC4)OC
How it was run: as §1

defactinib = compound: CNC(=O)c1ccc(Nc2ncc(C(F)(F)F)c(NCc3nccnc3N(C)S(C)(=O)=O)n2)cc1 [defactinib]
How it was run: as §1

rucaparib = compound: CNCc1ccc(-c2[nH]c3cc(F)cc4c3c2CCNC4=O)cc1 [rucaparib]
How it was run: as §1

[9] = compound: CNc1nc(-c2ccc3c(N)n[nH]c3c2)cc(N2C[C@@H](C(=O)NC3CCCCC3)CC[C@H]2C)n1
How it was run: as §1

encorafenib = compound: COC(=O)N[C@@H](C)CNc1nccc(-c2cn(C(C)C)nc2-c2cc(Cl)cc(NS(C)(=O)=O)c2F)n1 [encorafenib]
How it was run: as §1

[10] = compound: COC(=O)[C@H](CCSC)NC(=O)C1=C(C=C(C=C1)NC[C@H](CS)N)C2=CC=CC=C2
How it was run: as §1

Measured: log2 fold change

PPP1R8 (UniProt Q12972)
inactive: [1] -0.067 | volasertib -0.054 | [2] 0.024 | epoxomicin 0.132 | [3] -0.013 | [4] -0.038 | [5] 0.084 | rosiglitazone 0.001 | [6] 0.003 | [7] -0.02 | saracatinib 0.018 | sotrastaurin -0.031 | alvocidib -0.066 | Tubastatin A 0.019 | [8] 0.014 | defactinib -0.038 | rucaparib 0 | [9] 0.001 | encorafenib 0.002 | [10] -0.009

PPP2R2D (UniProt Q66LE6)
inactive: [1] -0.035 | volasertib 0.114 | [2] 0 | epoxomicin 0.06 | [3] -0.011 | [4] 0.021 | [5] 0.038 | rosiglitazone 0.021 | [6] 0.011 | [7] -0.052 | saracatinib -0.095 | sotrastaurin 0.06 | alvocidib 0.006 | Tubastatin A 0.011 | [8] 0.097 | defactinib -0.003 | rucaparib 0.02 | [9] -0.066 | encorafenib -0.077 | [10] 0.108

PQBP1 (UniProt O60828)
inactive: [1] 0.014 | volasertib 0.085 | [2] -0.033 | epoxomicin 0.003 | [3] 0.005 | [4] 0.039 | [5] 0.024 | rosiglitazone -0.004 | [6] -0.047 | [7] -0.024 | saracatinib 0.036 | sotrastaurin 0.039 | alvocidib -0.038 | Tubastatin A 0.011 | [8] -0.022 | defactinib 0.005 | rucaparib -0.013 | [9] -0.036 | encorafenib -0.029 | [10] -0.013

PPP3CB isoform 4 (UniProt P16298)
inactive: [1] -0.005 | volasertib -0.109 | [2] 0.003 | epoxomicin 0.019 | [3] -0.021 | [4] 0.029 | [5] 0 | rosiglitazone 0.064 | [6] -0.017 | [7] -0.123 | saracatinib 0.006 | sotrastaurin 0.061 | alvocidib -0.019 | Tubastatin A 0.017 | [8] -0.026 | defactinib -0.004 | rucaparib -0.084 | [9] -0.192 | encorafenib -0.022 | [10] 0.029

PPP4C (UniProt P60510)
inactive: [1] -0.046 | volasertib -0.047 | [2] -0.013 | epoxomicin -0.032 | [3] -0.033 | [4] -0.009 | [5] -0.003 | rosiglitazone 0 | [6] -0.102 | [7] -0.03 | saracatinib 0.081 | sotrastaurin 0.03 | alvocidib 0.012 | Tubastatin A 0.011 | [8] -0.038 | defactinib -0.021 | rucaparib 0.027 | [9] 0.059 | encorafenib 0.024 | [10] 0.015

PROCR (UniProt Q9UNN8)
inactive: [1] -0.084 | volasertib 0.249 | [2] -0.048 | epoxomicin 0.026 | [3] 0.046 | [4] -0.058 | [5] -0.157 | rosiglitazone -0.015 | [6] 0.057 | [7] 0.238 | saracatinib 0.139 | sotrastaurin 0.068 | alvocidib 0.121 | Tubastatin A -0.032 | [8] -0.018 | defactinib 0.055 | rucaparib -0.032 | [9] 0.057 | encorafenib -0.06 | [10] 0.125

PPP1R14C (UniProt Q8TAE6)
inactive: [1] -0.028 | volasertib 0.401 | [2] -0.025 | epoxomicin -0.173 | [3] -0.01 | [4] 0.076 | [5] 0.258 | rosiglitazone 0.044 | [6] -0.328 | [7] -0.047 | saracatinib 0.15 | sotrastaurin 0 | alvocidib -0.048 | Tubastatin A -0.036 | [8] -0.016 | defactinib 0.048 | rucaparib -0.066 | [9] -0.195 | encorafenib 0.033 | [10] 0.074

PRPS1 (UniProt P60891)
inactive: [1] 0.045 | volasertib 0.035 | [2] -0.04 | epoxomicin 0.006 | [3] 0.014 | [4] 0.018 | [5] -0.063 | rosiglitazone 0.006 | [6] -0.009 | [7] -0.001 | saracatinib 0.009 | sotrastaurin 0.05 | alvocidib 0.044 | Tubastatin A 0.008 | [8] -0.045 | defactinib 0.01 | rucaparib -0.009 | [9] 0.003 | encorafenib -0.025 | [10] -0.033

PRKCSH (UniProt P14314)
inactive: [1] -0.02 | volasertib -0.017 | [2] 0.02 | epoxomicin 0.097 | [3] 0.03 | [4] -0.006 | [5] 0.005 | rosiglitazone -0.003 | [6] -0.025 | [7] 0.078 | saracatinib 0.006 | sotrastaurin 0.023 | alvocidib -0.014 | Tubastatin A -0.004 | [8] 0.009 | defactinib -0.012 | rucaparib -0.045 | [9] 0.048 | encorafenib 0.018 | [10] 0.005

PRRC2B (UniProt Q5JSZ5)
inactive: [1] -0.047 | volasertib 0.056 | [2] 0.042 | epoxomicin -0.028 | [3] 0.014 | [4] 0.077 | [5] -0.026 | rosiglitazone 0.013 | [6] 0.048 | [7] 0.052 | saracatinib 0.046 | sotrastaurin 0.05 | alvocidib -0.002 | Tubastatin A 0.071 | [8] -0.022 | defactinib 0.007 | rucaparib 0 | [9] -0.065 | encorafenib -0.059 | [10] 0.028

Pulled one by one from the list above (two):
PPP1R14C (UniProt Q8TAE6)
inactive: [1] -0.028 | volasertib 0.401 | [2] -0.025 | epoxomicin -0.173 | [3] -0.01 | [4] 0.076 | [5] 0.258 | rosiglitazone 0.044 | [6] -0.328 | [7] -0.047 | saracatinib 0.15 | sotrastaurin 0 | alvocidib -0.048 | Tubastatin A -0.036 | [8] -0.016 | defactinib 0.048 | rucaparib -0.066 | [9] -0.195 | encorafenib 0.033 | [10] 0.074

PRRC2B (UniProt Q5JSZ5)
inactive: [1] -0.047 | volasertib 0.056 | [2] 0.042 | epoxomicin -0.028 | [3] 0.014 | [4] 0.077 | [5] -0.026 | rosiglitazone 0.013 | [6] 0.048 | [7] 0.052 | saracatinib 0.046 | sotrastaurin 0.05 | alvocidib -0.002 | Tubastatin A 0.071 | [8] -0.022 | defactinib 0.007 | rucaparib 0 | [9] -0.065 | encorafenib -0.059 | [10] 0.028

Next part:

PRPF4 (UniProt O43172)
inactive: [1] -0.006 | volasertib -0.098 | [2] 0.02 | epoxomicin -0.012 | [3] -0.023 | [4] -0.041 | [5] 0.034 | rosiglitazone 0.004 | [6] 0.007 | [7] -0.03 | saracatinib -0.011 | sotrastaurin -0.018 | alvocidib -0.14 | Tubastatin A -0.007 | [8] -0.016 | defactinib -0.114 | rucaparib 0.081 | [9] -0.026 | encorafenib 0.01 | [10] 0.047

PPP1R18 (UniProt Q6NYC8)
inactive: [1] 0.045 | volasertib -0.094 | [2] 0.078 | epoxomicin -0.038 | [3] -0.043 | [4] -0.008 | [5] 0.006 | rosiglitazone 0.042 | [6] -0.036 | [7] 0.077 | saracatinib 0.013 | sotrastaurin -0.028 | alvocidib -0.073 | Tubastatin A 0.026 | [8] -0.01 | defactinib -0.148 | rucaparib 0 | [9] -0.046 | encorafenib 0.007 | [10] -0.055

PPP1R11 (UniProt O60927)
inactive: [1] 0.019 | volasertib 0 | [2] 0.023 | epoxomicin 0.064 | [3] -0.015 | [4] -0.006 | [5] -0.012 | rosiglitazone -0.014 | [6] -0.027 | [7] -0.067 | saracatinib 0.104 | sotrastaurin 0.05 | alvocidib 0.138 | Tubastatin A -0.167 | [8] 0.004 | defactinib 0.004 | rucaparib -0.026 | [9] 0.023 | encorafenib 0 | [10] 0.143

PRPF18 (UniProt Q99633)
inactive: [1] 0.089 | volasertib -0.026 | [2] 0.021 | epoxomicin 0.077 | [3] -0.021 | [4] -0.148 | [5] -0.002 | rosiglitazone 0.039 | [6] -0.138 | [7] -0.076 | saracatinib 0.096 | sotrastaurin -0.054 | alvocidib -0.066 | Tubastatin A 0.116 | [8] -0.038 | defactinib -0.098 | rucaparib -0.121 | [9] 0.131 | encorafenib 0.058 | [10] 0.002

PRDX6 (UniProt P30041)
inactive: [1] -0.034 | volasertib 0.123 | [2] 0.006 | epoxomicin -0.02 | [3] 0.032 | [4] -0.009 | [5] 0.022 | rosiglitazone 0.035 | [6] -0.078 | [7] -0.022 | saracatinib -0.052 | sotrastaurin 0.015 | alvocidib -0.028 | Tubastatin A -0.029 | [8] 0.021 | defactinib -0.022 | rucaparib -0.067 | [9] 0.036 | encorafenib -0.028 | [10] -0.005

PRDX2 (UniProt P32119)
inactive: [1] -0.028 | volasertib 0.097 | [2] -0.042 | epoxomicin 0 | [3] 0.029 | [4] -0.009 | [5] -0.007 | rosiglitazone 0.018 | [6] -0.075 | [7] -0.076 | saracatinib -0.05 | sotrastaurin 0.053 | alvocidib -0.021 | Tubastatin A -0.016 | [8] -0.026 | defactinib 0.01 | rucaparib 0.096 | [9] 0.004 | encorafenib -0.022 | [10] 0.029
